The other results are listed elsewhere or left out.
Target: OsWRKY34 (Oryza sativa, UniProt Q0JBA9 1-250)
Assay: protein-binding microarray (RPBM); PBS, 2% BSA, 51.3 ng/ul salmon testes DNA, 50 uM zinc acetate, 200 nM TF, 25 C, 1 h; high values mean tight binding
Details: protein: recombinant; tags: N-terminal polyhistidine and DsRed monomer fusion (pET32a); label: CyDye5-dUTP incorporated in the synthesized complementary strand; 3' TTTTT single-stranded linker to array surface; dsDNA, one strand shown
In short: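 Binding signal here means per-feature fluorescence intensity in arbitrary units. The values were read on an Axon 4000B scanner after a custom Agilent array, double-stranded by primer extension with Cy5-dUTP, was incubated with 200 nM protein at 25 °C for 1 h in PBS with 2% BSA, salmon testes DNA and 50 µM zinc acetate, then washed. The proteins were transcription factors with an N-terminal polyhistidine tag and DsRed, expressed in E. coli BL21-CodonPlus and purified on Ni–NTA.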

By UniProt entry, the sequences of proteins in these tests, tags left out.
UniProt Q0JBA9, entry or part of it: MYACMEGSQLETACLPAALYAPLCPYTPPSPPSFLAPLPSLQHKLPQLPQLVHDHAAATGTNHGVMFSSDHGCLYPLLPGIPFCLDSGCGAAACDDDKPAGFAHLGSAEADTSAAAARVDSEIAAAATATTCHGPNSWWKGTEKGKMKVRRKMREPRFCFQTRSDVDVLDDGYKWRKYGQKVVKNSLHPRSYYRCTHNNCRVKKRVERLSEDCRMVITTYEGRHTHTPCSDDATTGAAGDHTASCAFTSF

Sequence	binding signal
GTACACATGCTCACCAGAATTATTGTTTTGGCAAGTTGCACGGAGTCACCTAGTGCAG	8280 fluorescence intensity (a.u.)
GCTTAACCTATAGCAACCTGATTGATTTACAAGTTTTTTTCGGAGTCACCTAGTGCAG	8790 fluorescence intensity (a.u.)
CCTTCGTTCTCACACGCATGCATATCATCACTATATATGCCGGAGTCACCTAGTGCAG	11900 fluorescence intensity (a.u.)
GCCGTTGACTTTTTTAAACATGTTTGACCGTTCGTCTTATCGGAGTCACCTAGTGCAG	45200 fluorescence intensity (a.u.)
ATTGTCTTCTCCATGCATCCTACCAGTTTGTGCTTATTTACGGAGTCACCTAGTGCAG	9490 fluorescence intensity (a.u.)
TCCATTTCTCACTATCCTCTTGACCTCCATTTTTTTTTCCCGGAGTCACCTAGTGCAG	12300 fluorescence intensity (a.u.)
CACAACCCTTCACCATTCACCCGTACCTATTTTCTTAATACGGAGTCACCTAGTGCAG	9690 fluorescence intensity (a.u.)
GCATTCCTATTATATTCCTGTATTTTTTACACATGCCCTTCGGAGTCACCTAGTGCAG	9180 fluorescence intensity (a.u.)
TCTCTCTGTCTCCTATCCCTGTATACTATTTTATTCTCCACGGAGTCACCTAGTGCAG	10000 fluorescence intensity (a.u.)
GGCCGGCGGGGAGCACAAAAGTTACAGTCTCTATATTTATCGGAGTCACCTAGTGCAG	8540 fluorescence intensity (a.u.)
GACTCCTTCCGTATTCTCCTATGGCTTCCTTGTATATCTTCGGAGTCACCTAGTGCAG	15600 fluorescence intensity (a.u.)
GGTGTGGGGATTCGGCTGGCCGTCGCCTTCGTCTTCGTCTCGGAGTCACCTAGTGCAG	14500 fluorescence intensity (a.u.)
TCCTATGTATTATCACCCTAAAATCGTATATCCTACTTATCGGAGTCACCTAGTGCAG	10700 fluorescence intensity (a.u.)
CCCCGATCCACGCCGCCGCAGCCGCATCACCGTCTATTTCCGGAGTCACCTAGTGCAG	9580 fluorescence intensity (a.u.)
TTGAAGCCCACCACACCACCTCACCTCGCCGCCGCCGCCACGGAGTCACCTAGTGCAG	9350 fluorescence intensity (a.u.)
ATATGCCGCGTCTTCCTTTTTGTTAACTCAAGACTCGTGGCGGAGTCACCTAGTGCAG	12000 fluorescence intensity (a.u.)
TAATGCTTTGTGTCGATTCACATGTTTTATTAATTATTAACGGAGTCACCTAGTGCAG	9180 fluorescence intensity (a.u.)
TCTTGTTACAATCTGCTTTTTGGTTTATTTCTGTTTTCAACGGAGTCACCTAGTGCAG	8190 fluorescence intensity (a.u.)
TCCTACCTCCAGGATCATGGCCTACCTGGCTTTCAGCTAACGGAGTCACCTAGTGCAG	8340 fluorescence intensity (a.u.)
CGGAACCACTTTTTTTTTTTGTCCTTTTTCTTTTACGTAACGGAGTCACCTAGTGCAG	8750 fluorescence intensity (a.u.)
TCCGCTTCTTTGCCCGCCGCTGCGCTCGCACTCCACTGCTCGGAGTCACCTAGTGCAG	11300 fluorescence intensity (a.u.)

Fetched one by one from the entries so far (2):
Sequence	binding signal
TTGAAGCCCACCACACCACCTCACCTCGCCGCCGCCGCCACGGAGTCACCTAGTGCAG	9350 fluorescence intensity (a.u.)
TCCTATGTATTATCACCCTAAAATCGTATATCCTACTTATCGGAGTCACCTAGTGCAG	10700 fluorescence intensity (a.u.)

Remaining list, next part:

Sequence	binding signal
CCCTTGCAAGAGCTCTCACACCCTTGTGCATTTAGTTTATCGGAGTCACCTAGTGCAG	10300 fluorescence intensity (a.u.)
GCGCGCCACGCCACGCCACGCGCCCACGCCTCGCCTCGCCCGGAGTCACCTAGTGCAG	9630 fluorescence intensity (a.u.)
GCCTCAGTTCACCGCCCGGCGCCGCCGCATCCATCTGCATCGGAGTCACCTAGTGCAG	9710 fluorescence intensity (a.u.)
TTAATTACTCTCTCCGTTTCTAAATATTTGACACCGTTGACGGAGTCACCTAGTGCAG	8220 fluorescence intensity (a.u.)
TTGGCGGTACCTTCTTCGTCCCACGTCCGTATTCTATCTTCGGAGTCACCTAGTGCAG	10000 fluorescence intensity (a.u.)
ACTTTCCTAATTGCGATTCGGCGAAGTCGCGTTATAATACCGGAGTCACCTAGTGCAG	10500 fluorescence intensity (a.u.)
ATCCTCCACTCCTCCACATCGACCGCCTCGATCTCTCTCTCGGAGTCACCTAGTGCAG	9120 fluorescence intensity (a.u.)
CAGCACATACATATATACTACTACTCCAGTTCCCTAGCTACGGAGTCACCTAGTGCAG	9720 fluorescence intensity (a.u.)
CCTCGTCTCGTCGCCCCGAAGCACCACACCACAACCACAACGGAGTCACCTAGTGCAG	8110 fluorescence intensity (a.u.)
CGTCGGTCTCTCTCTCTCGCTCTCGTCCCCGCCGCGGCGCCGGAGTCACCTAGTGCAG	9950 fluorescence intensity (a.u.)
GCGGCCATGTGTTTACCTACTGTTCTCTCCTGCCTCCACACGGAGTCACCTAGTGCAG	8760 fluorescence intensity (a.u.)
GGGGCGCCGCCGTTCGTCCTGCTGCTTCCGCCGCATCCTGCGGAGTCACCTAGTGCAG	9650 fluorescence intensity (a.u.)
GTTGTAGTTGTGTTGCGTTCGCGTAGAAGTGGGTCGATCTCGGAGTCACCTAGTGCAG	9130 fluorescence intensity (a.u.)
GGGTTCGATTCCCCGCACCTCCAATATAAAACGTTTTCTTCGGAGTCACCTAGTGCAG	9000 fluorescence intensity (a.u.)
CTAAACACGATTCGCGAGCCACACTCCTGCTGTCACTCGTCGGAGTCACCTAGTGCAG	8310 fluorescence intensity (a.u.)
ACTCCCTCCGTTTCACAATGTAAGTCATTCTAGCATTTCCCGGAGTCACCTAGTGCAG	9500 fluorescence intensity (a.u.)
CTGGTGAACGGTTTGAATGAGTTTAGGGGCGAACATATCTCGGAGTCACCTAGTGCAG	8450 fluorescence intensity (a.u.)
GCATTCGTTTATGTTTCCGGTCTATGTCTTGCTTAGTCACCGGAGTCACCTAGTGCAG	8910 fluorescence intensity (a.u.)
GAGATGCGGCACGGTTGGCTTGTTGACTTTTTCCGGCCCGCGGAGTCACCTAGTGCAG	17500 fluorescence intensity (a.u.)
TGGGGTTGAGGGAGGGTGCCGCGGGTGGCTGGCGGAGGACCGGAGTCACCTAGTGCAG	10600 fluorescence intensity (a.u.)
GCTAATTGGGCCTTCAGGTAGGGGTGGGCGTTCGGTCTGACGGAGTCACCTAGTGCAG	15700 fluorescence intensity (a.u.)

From paper PMC7819943, “Rice protein-binding microarrays: a tool to detect cis-acting elements near promoter regions in rice”
